Results from patent US20240110220A1, “DETECTING BETA-LACTAMASE ENZYME ACTIVITY” (COMMISSARIAT A L'ENERGIE ATOMIQUE ET AUX ENERGIES …, priority 2021, published 2024).
The source gives many values for each of these; only a part stands here.

Test system: bacterial colonies
Assay: Validation of the rapid test strip on bacterial colonies sensitive or resistant to third-generation cephalosporins (Table 12)
Assay type: biochemical
Design: key: A signal on the TL is considered as “P”; An absence of signal on the TL is defined as “N”
Protocol: In order to validate the test strip on bacterial colonies for its clinical use, […].
In order to carry out these tests, all of the solutions below have been prepared in the buffer strip having, for composition: 0.1 M pH 8 Tris buffer/HCL+0.15 M NaCl+0.5% Tween 20+1% chaps+0.01% sodium azide. […] The tracer is in dried format on the CP. […] A CL was produced. It consists of anti-tracer antibodies. The migration is carried out in a plastic cassette.
A bacterial colony was sampled from an URI-4 agar with a 1 μl ose, then deposited in the previously prepared Eppendorf tube. The tube was vortexed for five seconds, then incubated for 30 minutes at ambient temperature. Once the incubation was finished, 100 μl was sampled and deposited on the test strip. The reading is carried out after 10 minutes migration. A signal on the TL is considered as “P”. An absence of signal on the TL is defined as “N”.

## CO/N=C(\C(=O)N[C@@H]1C(=O)N2C(C(=O)O)=C(COC(C)=O)CS[C@H]12)c1csc(N)n1 [non-hydrolysed cefotaxime, cefotaxime]
A. baumannii, CTX-M-15, isolate number 1, strains capable of hydrolysing cefotaxime
  results of the test: P
A. baumannii, GES-11 + OXA-23, isolate number 1, strains capable of hydrolysing cefotaxime
  results of the test: P
A. baumannii, GES-11 + OXA-64, isolate number 1, strains capable of hydrolysing cefotaxime
  results of the test: P
A. baumannii, GES-11 + OXA-98, isolate number 1, strains capable of hydrolysing cefotaxime
  results of the test: P
A. baumannii, GES-11, isolate number 1, strains capable of hydrolysing cefotaxime
  results of the test: P
A. baumannii, GES-12 + OXA-51, isolate number 3, strains capable of hydrolysing cefotaxime
  results of the test: P
A. baumannii, GES-12, isolate number 1, strains capable of hydrolysing cefotaxime
  results of the test: P
A. baumannii, GES-14 + OXA 23, isolate number 1, strains capable of hydrolysing cefotaxime
  results of the test: P
A. baumannii, GES-14, isolate number 3, strains capable of hydrolysing cefotaxime
  results of the test: P
A. baumannii, IMP-1, isolate number 2, strains capable of hydrolysing cefotaxime
  results of the test: P
A. baumannii, IMP-4, isolate number 1, strains capable of hydrolysing cefotaxime
  results of the test: P
A. baumannii, N/A, isolate number 2, strains not capable of hydrolysing cefotaxime
  results of the test: N
A. baumannii, NDM-1 + OXA 23, isolate number 5, strains capable of hydrolysing cefotaxime
  results of the test: P
A. baumannii, NDM-1 + OXA-51, isolate number 1, strains capable of hydrolysing cefotaxime
  results of the test: P
A. baumannii, NDM-1, isolate number 2, strains capable of hydrolysing cefotaxime
  results of the test: P
A. baumannii, NDM-2, isolate number 1, strains capable of hydrolysing cefotaxime
  results of the test: P
A. baumannii, NDM, isolate number 1, strains capable of hydrolysing cefotaxime
  results of the test: P
A. baumannii, OXA-13, isolate number 1, strains not capable of hydrolysing cefotaxime
  results of the test: N
A. baumannii, OXA-14, isolate number 1, strains capable of hydrolysing cefotaxime
  results of the test: P
A. baumannii, OXA-18 + OXA-20, isolate number 1, strains capable of hydrolysing cefotaxime
  results of the test: P
A. baumannii, OXA-21, isolate number 1, strains not capable of hydrolysing cefotaxime
  results of the test: N
A. baumannii, OXA-23, isolate number 4, strains capable of hydrolysing cefotaxime
  results of the test: P
A. baumannii, OXA-24 + OXA-40, isolate number 1, strains capable of hydrolysing cefotaxime
  results of the test: P
A. baumannii, OXA-51, isolate number 1, strains capable of hydrolysing cefotaxime
  results of the test: P
A. baumannii, OXA-58, isolate number 1, strains capable of hydrolysing cefotaxime
  results of the test: P
A. baumannii, OXA-66, isolate number 1, strains capable of hydrolysing cefotaxime
  results of the test: P
A. baumannii, OXA-72, isolate number 1, strains capable of hydrolysing cefotaxime
  results of the test: P
A. baumannii, OXA-97, isolate number 1, strains capable of hydrolysing cefotaxime
  results of the test: P
A. baumannii, OXA-143, isolate number 1, strains capable of hydrolysing cefotaxime
  results of the test: P
A. baumannii, OXA-253, isolate number 1, strains capable of hydrolysing cefotaxime
  results of the test: P
A. baumannii, Overexpressed AmpC + OXA-23, isolate number 1, strains capable of hydrolysing cefotaxime
  results of the test: P
A. baumannii, PER-1, isolate number 1, strains capable of hydrolysing cefotaxime
  results of the test: P
A. baumannii, RTG-4, isolate number 1, strains not capable of hydrolysing cefotaxime
  results of the test: N
A. baumannii, SCO-1, isolate number 1, strains capable of hydrolysing cefotaxime
  results of the test: P
A. baumannii, SHV-5 + OXA-51, isolate number 1, strains capable of hydrolysing cefotaxime
  results of the test: P
A. baumannii, SHV-5, isolate number 1, strains capable of hydrolysing cefotaxime
  results of the test: P
A. baumannii, SIM-1, isolate number 1, strains capable of hydrolysing cefotaxime
  results of the test: P
A. baumannii, TEM, isolate number 1, strains capable of hydrolysing cefotaxime
  results of the test: P
A. baumannii, VEB-1 + OXA-10 + OXA-69, isolate number 1, strains capable of hydrolysing cefotaxime
  results of the test: P
A. baumannii, VEB-1, isolate number 1, strains capable of hydrolysing cefotaxime
  results of the test: P
A. genomospecies, VIM-4, isolate number 1, strains capable of hydrolysing cefotaxime
  results of the test: P
A. xylosoxidans, VIM-1, isolate number 1, strains capable of hydrolysing cefotaxime
  results of the test: P
E coli, CTX-M-3, isolate number 1, strains capable of hydrolysing cefotaxime
  results of the test: P
E. aerogenes, TEM-24, isolate number 2, strains capable of hydrolysing cefotaxime
  results of the test: P
E. cloacae, CTX-M-15 + Overexpressed AmpC, isolate number 1, strains capable of hydrolysing cefotaxime
  results of the test: P
E. cloacae, NmcA + Overexpressed AmpC, isolate number 1, strains capable of hydrolysing cefotaxime
  results of the test: P
E. cloacae, SHV + GES-5, isolate number 1, strains capable of hydrolysing cefotaxime
  results of the test: P
E. cloacae, SHV + OXA-163, isolate number 1, strains capable of hydrolysing cefotaxime
  results of the test: P
E. cloacae, SHV-5 + OXA-48, isolate number 1, strains capable of hydrolysing cefotaxime
  results of the test: P
E. cloacae, SHV-12 + IMP-8, isolate number 1, strains capable of hydrolysing cefotaxime
  results of the test: P
E. cloacae, SHV-70 + VIM-1, isolate number 1, strains capable of hydrolysing cefotaxime
  results of the test: P
E. cloacae, TEM-1 + KPC-2 + OXA-1, isolate number 1, strains capable of hydrolysing cefotaxime
  results of the test: P
E. cloacae, TEM-1 + KPC-2, isolate number 1, strains capable of hydrolysing cefotaxime
  results of the test: P
E. cloacae, VIM-4 + OXA-48, isolate number 1, strains capable of hydrolysing cefotaxime
  results of the test: P
E. coli, ACC-1, isolate number 1, strains capable of hydrolysing cefotaxime
  results of the test: P
E. coli, CMY + VIM-4, isolate number 1, strains capable of hydrolysing cefotaxime
  results of the test: P
E. coli, CMY-2 + OXA-244, isolate number 1, strains capable of hydrolysing cefotaxime
  results of the test: P
E. coli, CMY-13 + VIM-1, isolate number 1, strains capable of hydrolysing cefotaxime
  results of the test: P
E. coli, CMY-136, isolate number 1, strains capable of hydrolysing cefotaxime
  results of the test: P
E. coli, CTX-M + MCR-3.2, isolate number 1, strains capable of hydrolysing cefotaxime
  results of the test: P
E. coli, CTX-M + NDM-19, isolate number 1, strains capable of hydrolysing cefotaxime
  results of the test: P
E. coli, CTX-M-1, isolate number 3, strains capable of hydrolysing cefotaxime
  results of the test: P
E. coli, CTX-M-2 + MCR-1, isolate number 1, strains capable of hydrolysing cefotaxime
  results of the test: P
E. coli, CTX-M-2, isolate number 3, strains capable of hydrolysing cefotaxime
  results of the test: P
E. coli, CTX-M-8, isolate number 1, strains capable of hydrolysing cefotaxime
  results of the test: P
E. coli, CTX-M-10, isolate number 1, strains capable of hydrolysing cefotaxime
  results of the test: P
E. coli, CTX-M-13 + CMY, isolate number 1, strains capable of hydrolysing cefotaxime
  results of the test: P
E. coli, CTX-M-14, isolate number 2, strains capable of hydrolysing cefotaxime
  results of the test: P
E. coli, CTX-M-15 + OXA-48, isolate number 1, strains capable of hydrolysing cefotaxime
  results of the test: P
E. coli, CTX-M-15, isolate number 5, strains capable of hydrolysing cefotaxime
  results of the test: P
E. coli, CTX-M-17, isolate number 1, strains capable of hydrolysing cefotaxime
  results of the test: P
E. coli, CTX-M-24, isolate number 2, strains capable of hydrolysing cefotaxime
  results of the test: P
E. coli, CTX-M-27, isolate number 2, strains capable of hydrolysing cefotaxime
  results of the test: P
E. coli, CTX-M-32, isolate number 1, strains capable of hydrolysing cefotaxime
  results of the test: P
E. coli, CTX-M-37, isolate number 1, strains capable of hydrolysing cefotaxime
  results of the test: P
E. coli, CTX-M-55, isolate number 2, strains capable of hydrolysing cefotaxime
  results of the test: P
E. coli, CTX-M-57, isolate number 1, strains capable of hydrolysing cefotaxime
  results of the test: P
E. coli, CTX-M-65, isolate number 2, strains capable of hydrolysing cefotaxime
  results of the test: P
E. coli, CTX-M-71, isolate number 1, strains capable of hydrolysing cefotaxime
  results of the test: P
E. coli, CTX-M-82, isolate number 1, strains capable of hydrolysing cefotaxime
  results of the test: P
E. coli, CTX-M-100, isolate number 1, strains capable of hydrolysing cefotaxime
  results of the test: P
E. coli, CTX-M-101, isolate number 1, strains capable of hydrolysing cefotaxime
  results of the test: P
E. coli, CTX-M-182, isolate number 1, strains capable of hydrolysing cefotaxime
  results of the test: P
E. coli, DHA-1, isolate number 1, strains capable of hydrolysing cefotaxime
  results of the test: P
E. coli, ESBL + MCR-1, isolate number 1, strains capable of hydrolysing cefotaxime
  results of the test: P
E. coli, ESBL + Mutation PmrB (G160E), isolate number 1, strains capable of hydrolysing cefotaxime
  results of the test: P
E. coli, IMP-1, isolate number 1, strains capable of hydrolysing cefotaxime
  results of the test: P
E. coli, IMP-14, isolate number 1, strains capable of hydrolysing cefotaxime
  results of the test: P
E. coli, KPC-2, isolate number 1, strains capable of hydrolysing cefotaxime
  results of the test: P
E. coli, KPC-3, isolate number 1, strains capable of hydrolysing cefotaxime
  results of the test: P
E. coli, KPC-5, isolate number 1, strains capable of hydrolysing cefotaxime
  results of the test: P
